Assay results: PubChem BioAssay AID190 (DTP/NCI, 2004)
The list is a part of this screen's results and no random one: it gathers tests that were run many times, whatever their T/C, doses with no T/C, and many T/C values between a quarter and a half above the control. Other doses and runs of a compound stand elsewhere. T/C is the treated group as % of the vehicle group. Some doses have a count of surviving animals in place of a T/C: the source holds a T/C of zero for them, seemingly a mark for toxic or unscored doses. Some doses without a T/C left all or most animals alive at the check, yet need not have been tolerated: survival well below the control is almost never listed, so the zero probably covers shortened survival too. Survivors were counted at the toxicity check, usually on the fifth day, unless a day is given; later deaths do not show. Schedules are NCI's codes, read here as Q, the interval in days (D) or hours (H), X, the number of doses. Some entries hold several experiments; the values are given in rising order. For survival time, the PubChem record calls one and a half times the control and up active, and a quarter to a half above the control has no call in these data; cut-offs in other NCI protocols can differ. Some T/C values carry the count of animals alive at the toxicity check (mostly the fifth day); where none is given, no animal had died by that day. Brackets with × say how often a value occurs here.

Test system: AKR/Lw mice, AKR lymphoma ip, median survival T/C
Test: NCI In Vivo Anticancer Drug Screen. Data for tumor model Lymphoma AKR (Transplanted) (intraperitoneal) in AKR/Lw mice
Settings: T/C endpoint: median survival time, higher T/C = longer survival
Experimental: The antitumor activity of compounds was measured in mice bearing transplantable tumors. Survival or tumor size were measured and the results are expressed as the measurement made in the treated group (T) divided by the measurement made in the vehicle treated control group (C). The tumor model used in this assay is Lymphoma AKR (Transplanted) (intraperitoneal) in AKR/Lw mice

[1] = dose: 0.5 mg/kg/injection, schedule: Q04DX003 (ip), vehicle: saline
[2] = dose: 2.0 mg/kg/injection, schedule: Q04DX003 (ip), vehicle: saline
[3] = dose: 4.0 mg/kg/injection, schedule: Q04DX003 (ip), vehicle: saline
[4] = dose: 5.0 mg/kg/injection, schedule: Q01DX009 (ip), vehicle: saline
[5] = dose: 50.0 mg/kg/injection, schedule: Q04DX003 (ip), vehicle: Klucel (hydroxypropylcellulose) (HPC)
[6] = dose: 200.0 mg/kg/injection, schedule: Q01DX001 (ip), vehicle: Klucel (hydroxypropylcellulose) (HPC)
[7] = dose: 100.0 mg/kg/injection, schedule: Q04DX003 (ip), vehicle: Klucel (hydroxypropylcellulose) (HPC)
[8] = dose: 0.1 mg/kg/injection, schedule: Q01DX009 (ip), vehicle: saline
[9] = dose: 0.12 mg/kg/injection, schedule: Q01DX009 (ip), vehicle: saline
[10] = dose: 0.5 mg/kg/injection, schedule: Q01DX009 (ip), vehicle: saline
[11] = dose: 1.0 mg/kg/injection, schedule: Q01DX001 (ip), vehicle: saline
[12] = dose: 1.5 mg/kg/injection, schedule: Q01DX001 (ip), vehicle: saline
[13] = dose: 2.0 mg/kg/injection, schedule: Q01DX001 (ip), vehicle: saline
[14] = dose: 4.0 mg/kg/injection, schedule: Q01DX001 (ip), vehicle: saline

SMILES: Nc1cc[c]([Hg][Cl])cc1
- survivor count (dose: 25.0 mg/kg/injection, schedule: Q01DX001 (ip), vehicle: saline): 0 of 10
- survivor count (dose: 50.0 mg/kg/injection, schedule: Q01DX001 (ip), vehicle: saline): 0 of 10
- survivor count (dose: 100.0 mg/kg/injection, schedule: Q01DX001 (ip), vehicle: saline): 0 of 10

SMILES: NC(=O)c1[nH]nc(C2OC(CO)C(O)C2O)c1O (stereo unspecified)
- survivor count (dose: 0.12 mg/kg/injection, schedule: Q04DX003 (ip), vehicle: saline): 10 of 10
- survivor count (dose: 0.15 mg/kg/injection, schedule: Q01DX009 (ip), vehicle: saline): 10 of 10
- survivor count (dose: 0.3 mg/kg/injection, schedule: Q01DX009 (ip), vehicle: saline): 10 of 10
- T/C [1]: 133 % of control
- survivor count (dose: 0.6 mg/kg/injection, schedule: Q01DX009 (ip), vehicle: saline): 9 of 10
- survivor count (dose: 1.25 mg/kg/injection, schedule: Q01DX009 (ip), vehicle: saline): 7 of 10
- survivor count [2]: 10 of 10
- survivor count (dose: 2.5 mg/kg/injection, schedule: Q01DX009 (ip), vehicle: saline): 7 of 10
- survivor count [3]: 9 of 10
- survivor count [4]: 6 of 10
- survivor count (dose: 8.0 mg/kg/injection, schedule: Q04DX003 (ip), vehicle: saline): 10 of 10
- survivor count (dose: 10.0 mg/kg/injection, schedule: Q01DX009 (ip), vehicle: saline): 6 of 10
- survivor count (dose: 16.0 mg/kg/injection, schedule: Q04DX003 (ip), vehicle: saline): 8 of 10
- survivor count (dose: 32.0 mg/kg/injection, schedule: Q04DX003 (ip), vehicle: saline): 8 of 10

SMILES: Nc1ccccc1SC1CC(=O)N(c2ccc(I)cc2)C1=O (stereo unspecified)
- survivor count [5]: 10 of 10
- survivor count [6]: 10 of 10
- survivor count (dose: 400.0 mg/kg/injection, schedule: Q01DX001 (ip), vehicle: Klucel (hydroxypropylcellulose) (HPC)): 10 of 10

SMILES: Cc1cccc(C)c1NC(=S)N(C)C
- survivor count (dose: 12.5 mg/kg/injection, schedule: Q04DX003 (ip), vehicle: Klucel (hydroxypropylcellulose) (HPC)): 10 of 10
- survivor count (dose: 25.0 mg/kg/injection, schedule: Q04DX003 (ip), vehicle: Klucel (hydroxypropylcellulose) (HPC)): 10 of 10
- survivor count [5]: 10 of 10
- survivor count [7]: 8 of 10
- survivor count [6]: 2 of 10

SMILES: C/C=C(/C)N(C(C)=O)N(C(C)=O)c1ccc([N+](=O)[O-])cc1[N+](=O)[O-]
- survivor count [7]: 8 of 10
- survivor count (dose: 400.0 mg/kg/injection, schedule: Q04DX003 (ip), vehicle: Klucel (hydroxypropylcellulose) (HPC)): 10 of 10

SMILES: C1CN1c1nc(N2CC2)nc(N2CC2)n1
- survivor count (dose: 0.02 mg/kg/injection, schedule: Q01DX009 (ip), vehicle: saline): 9 of 10
- survivor count (dose: 0.05 mg/kg/injection, schedule: Q01DX009 (ip), vehicle: saline): 10 of 10
- T/C (dose: 0.06 mg/kg/injection, schedule: Q01DX009 (ip), vehicle: saline): 132 % of control
- T/C [8]: 147 % of control [9 of 10 alive]
- survivor count [8]: 10 of 10
- T/C [9]: 97 [9 of 10 alive], 105 [9 of 10 alive], 106 % of control
- survivor count [9]: 9 of 10 and 10 of 10
- T/C (dose: 0.12 mg/kg/injection, schedule: Q04DX003 (ip), vehicle: saline, evaluated on day 30): 102 % of control [9 of 10 alive]
- T/C (dose: 0.12 mg/kg/injection, schedule: Q04DX003 (ip), vehicle: saline, evaluated on day 60): 89 [8 of 10 alive], 100, 102, 113, 180 % of control
- T/C (dose: 0.25 mg/kg/injection, schedule: Q01DX009 (ip), vehicle: saline, evaluated on day 45): 135 % of control
- T/C (dose: 0.25 mg/kg/injection, schedule: Q01DX009 (ip), vehicle: saline, evaluated on day 60): 94 and 94 % of control [9 of 10 alive]
- survivor count (dose: 0.25 mg/kg/injection, schedule: Q01DX009 (ip), vehicle: saline): 8 of 10 and 10 of 10
- T/C (dose: 0.25 mg/kg/injection, schedule: Q04DX003 (ip), vehicle: saline, evaluated on day 30): 110 % of control
- T/C (dose: 0.25 mg/kg/injection, schedule: Q04DX003 (ip), vehicle: saline, evaluated on day 60): 89 [9 of 10 alive], 93 [9 of 10 alive], 117 % of control
- survivor count (dose: 0.25 mg/kg/injection, schedule: Q04DX003 (ip), vehicle: saline): 10 of 10
- T/C (dose: 0.4 mg/kg/injection, schedule: Q04DX003 (ip), vehicle: saline): 127 % of control
- T/C (dose: 0.5 mg/kg/injection, schedule: Q01DX001 (ip), vehicle: saline): 100 (2×), 107, 116 [9 of 10 alive], 121 % of control
- T/C [10]: 122 % of control
- survivor count [10]: 2 of 10, 9 of 10, 10 of 10
- T/C (dose: 0.5 mg/kg/injection, schedule: Q04DX003 (ip), vehicle: saline, evaluated on day 45): 110 % of control
- T/C (dose: 0.5 mg/kg/injection, schedule: Q04DX003 (ip), vehicle: saline, evaluated on day 60): 103, 107, 120 [8 of 10 alive], 134, 142, 173 % of control
- survivor count [1]: 8 of 10 and 10 of 10
- T/C (dose: 0.75 mg/kg/injection, schedule: Q04DX003 (ip), vehicle: saline): 146 % of control
- T/C [11]: 108, 121, 123, 125 [9 of 10 alive], 133 [9 of 10 alive], 147 % of control
- survivor count [11]: 9 of 10
- survivor count (dose: 1.0 mg/kg/injection, schedule: Q01DX009 (ip), vehicle: saline): 10 of 10
- T/C (dose: 1.0 mg/kg/injection, schedule: Q04DX003 (ip), vehicle: saline, evaluated on day 45): 124 % of control
- T/C (dose: 1.0 mg/kg/injection, schedule: Q04DX003 (ip), vehicle: saline, evaluated on day 60): 132 % of control
- survivor count (dose: 1.0 mg/kg/injection, schedule: Q04DX003 (ip), vehicle: saline): 9 of 10 and 10 of 10
- T/C [12]: 125 % of control [9 of 10 alive]
- survivor count [12]: 10 of 10
- survivor count (dose: 1.6 mg/kg/injection, schedule: Q04DX003 (ip), vehicle: saline): 9 of 10
- T/C [13]: 90 [9 of 10 alive], 136, 139 % of control
- survivor count [13]: 4 of 10, 6 of 10, 7 of 10
- T/C [2]: 148 % of control
- survivor count [2]: 2 of 10, 9 of 10, 10 of 10
- survivor count (dose: 3.0 mg/kg/injection, schedule: Q01DX001 (ip), vehicle: saline): 0 of 10, 3 of 10, 4 of 10
- T/C [14]: 142 % of control
- survivor count [14]: 4 of 10
- survivor count [3]: 2 of 10 and 6 of 10
- survivor count [4]: 0 of 10
- survivor count (dose: 5.0 mg/kg/injection, schedule: Q04DX003 (ip), vehicle: saline): 0 of 10
- survivor count (dose: 6.0 mg/kg/injection, schedule: Q01DX001 (ip), vehicle: saline): 0 of 10 and 2 of 10
- survivor count (dose: 8.0 mg/kg/injection, schedule: Q01DX001 (ip), vehicle: saline): 8 of 10
- survivor count (dose: 10.0 mg/kg/injection, schedule: Q04DX003 (ip), vehicle: saline): 0 of 10
- survivor count (dose: 12.0 mg/kg/injection, schedule: Q01DX001 (ip), vehicle: saline): 0 of 10 and 3 of 10
- survivor count (dose: 60.0 micrograms/kg/injection, schedule: Q01DX009 (ip), vehicle: saline): 9 of 10

SMILES: c1ccc(C[N+](Cc2ccccc2)=C2CCCCC2)cc1
- survivor count (dose: 400.0 mg/kg/injection, schedule: Q01DX001 (ip), vehicle: saline): 0 of 10

SMILES: O=C(NC(CSSCC(NC(=O)OCc1ccccc1)C(=O)O)C(=O)O)OCc1ccccc1 (stereo unspecified)
- survivor count (dose: 200.0 mg/kg/injection, schedule: Q04DX003 (ip), vehicle: saline): 10 of 10
